From publication PMC9814400 (Communications Chemistry, 2022)

Tested on: p97
Assay: BLI affinity from kinetic data compared with steady-state affinity
Format: binding
Details: construct not stated

Structure (SMILES)	lower affinity deduced from kinetic data vs steady state
Nc1[nH]ncc1-c1ccc(Cl)cc1 [TROLL18]	up to 3.5 times
Cc1ccc(-c2csc3nc(CO)cn23)cc1 [TROLL14]	up to 3.5 times
